Reference: PubChem BioAssay AID1259308 (NCATS, 2017)
Assay: 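Knock-downs that increase output of a recombinant reporter protein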 (primary screen). Cell system: human HEK293 embryonic kidney cells stably expressing firefly luciferase (HEK-CMV-Luc2-Hygro). Reagent: single siRNA against human genes, 0.8 pmol siRNA per well. Timing: 72 h. Read-out: 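Luciferase light (ONE-Glo) measured on one replicate plate set and viability (CellTiter-Glo) on the other, scaled to a negative control siRNA, with robust z-scores and luciferase per cell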. Direction: total luciferase, z-score and total luciferase, % of control: higher = more reporter protein produced; luciferase per cell, z-score: higher = more reporter output per viable cell. Active means: 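Active when the median/MAD z-score for overall luciferase is greater than 3; a gene was taken forward for validation with new siRNAs if at least two of its three siRNAs passed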. Calls: active = raised luciferase; inactive = no rise.
The whole screen tested about 59,000 reagents; shown is an unselected part. Over the whole deposit, about 1,510 (2.6%) are marked active. 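Calls use total luciferase alone and ignore viability, so some active siRNAs may act by altering cell number.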 The numbers tell different reagents against one gene apart. Not all columns of the deposit are shown.

gene knocked down | reagent | total luciferase, z-score | total luciferase, % of control | luciferase per cell, z-score | Call
CHRND | 1 | 4.14 | 164 | 3.28 | active
CHRND | 2 | 1.17 | 105 | 0.768 | inactive
CHRND | 3 | -0.707 | 67.8 | -0.068 | inactive
KAT6A | 1 | 0.386 | 89.6 | 0.345 | inactive
KAT6A | 2 | -2.57 | 30.8 | -3.19 | inactive
KAT6A | 3 | -0.706 | 67.8 | -1.43 | inactive
HFM1 | 1 | -0.0217 | 81.5 | -0.188 | inactive
HFM1 | 2 | -0.103 | 79.8 | -0.102 | inactive
HFM1 | 3 | 0.47 | 91.2 | 0.654 | inactive
APOLD1 | 1 | -1.08 | 60.3 | -1.53 | inactive
APOLD1 | 2 | 0.928 | 100 | 1.25 | inactive
APOLD1 | 3 | -1 | 61.9 | -1.76 | inactive
MYOM3 | 1 | -0.374 | 74.4 | -1.09 | inactive
MYOM3 | 2 | -0.575 | 70.4 | -0.652 | inactive
MYOM3 | 3 | -1.17 | 58.6 | -1.71 | inactive
TP53I11 | 1 | -0.608 | 69.8 | -0.582 | inactive
TP53I11 | 2 | 1.2 | 106 | 0.879 | inactive
TP53I11 | 3 | 0.596 | 93.7 | -0.31 | inactive
PHF21B | 1 | 0.672 | 95.3 | -0.217 | inactive
PHF21B | 2 | 2.76 | 137 | 1.28 | inactive
PHF21B | 3 | -0.627 | 69.4 | -1.47 | inactive
LONP2 | 1 | -0.219 | 77.5 | -0.488 | inactive
LONP2 | 2 | 0.347 | 88.8 | 0.633 | inactive
LONP2 | 3 | 0.741 | 96.6 | 0.825 | inactive
PIGQ | 1 | 1.7 | 116 | 0.577 | inactive
PIGQ | 2 | -1.01 | 61.9 | -0.826 | inactive
PIGQ | 3 | 0.255 | 87 | -0.444 | inactive
TAFA2 | 1 | 0.881 | 99.4 | 0.856 | inactive
TAFA2 | 2 | -1.06 | 60.9 | -1.19 | inactive
TAFA2 | 3 | -1.83 | 45.5 | -1.66 | inactive
FBXO41 | 1 | -0.0102 | 81.7 | -0.447 | inactive
FBXO41 | 2 | 1.97 | 121 | 2.11 | inactive
FBXO41 | 3 | 0.0842 | 83.6 | -0.662 | inactive
SLC4A1 | 1 | 3.66 | 155 | 2.49 | active
SLC4A1 | 2 | 1.47 | 111 | 3.16 | inactive
SLC4A1 | 3 | 1.35 | 109 | 1.05 | inactive
ETFRF1 | 1 | -0.325 | 75.4 | -0.205 | inactive
ETFRF1 | 2 | -0.389 | 74.1 | 0.165 | inactive
ETFRF1 | 3 | -1.89 | 44.3 | -1.77 | inactive

Reprinted from the listing (3 entries):
gene knocked down | reagent | total luciferase, z-score | total luciferase, % of control | luciferase per cell, z-score | Call
TAFA2 | 1 | 0.881 | 99.4 | 0.856 | inactive
TAFA2 | 2 | -1.06 | 60.9 | -1.19 | inactive
TAFA2 | 3 | -1.83 | 45.5 | -1.66 | inactive
